This is an account of results in article PMC11651612.

These are yes or no findings as the source states them, for the method shown. In cells and extracts the contact can be indirect. A yes stands for co-enrichment or nearness to the bait. Other partners may have been found.

T1: Cdc3-mCherry (C. neoformans) (UniProt J9VUF2)
T1 sequence: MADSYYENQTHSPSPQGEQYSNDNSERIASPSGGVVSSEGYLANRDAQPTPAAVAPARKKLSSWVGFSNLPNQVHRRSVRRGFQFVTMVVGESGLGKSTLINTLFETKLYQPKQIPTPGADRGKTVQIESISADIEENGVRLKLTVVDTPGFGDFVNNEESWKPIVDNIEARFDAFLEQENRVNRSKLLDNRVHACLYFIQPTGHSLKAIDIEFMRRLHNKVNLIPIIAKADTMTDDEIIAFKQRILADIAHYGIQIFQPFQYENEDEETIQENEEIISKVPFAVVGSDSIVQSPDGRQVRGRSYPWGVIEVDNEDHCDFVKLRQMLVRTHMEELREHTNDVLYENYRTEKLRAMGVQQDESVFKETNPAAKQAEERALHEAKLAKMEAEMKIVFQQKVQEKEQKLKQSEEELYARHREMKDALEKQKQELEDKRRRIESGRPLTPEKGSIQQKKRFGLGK

B1: Cytoplasmic protein (CNAG_06905) (protein, UniProt J9VL36 1-287)
chain: MPEQTTISHCCVTGHIHSGNPLGSISIQHGLRTYVSLPSSAHKGGAEGQVGQKQDTIILISDIFGIDLVNSKLIADEWAGQGYKVLLPDFFEGDPIPESLLQSIVPNVRYQAEATALTKAADTAKSAAALGPWLVKHREAVTRPLVEKYVQSVRSDPSTGKIAVVGYCYGARYALLLAQPQSGAKPSVDVVVANHPSFLVLDDVKDINTTPCIILKGDKDDIMSEDDLNKVEQVMKQNLGEKLVVRRFPGAVHGFTIRGDMEDGQEKAQKEQANKDSFDFVAKYFKS
B2: Cytoplasmic protein (CNAG_06689) (protein, UniProt J9VRG3 1-367)
chain: MGILEKIDDIEKEMARTQKNKATEYHLGLLKAKLAKYRAQLLEPEKKSAKGEGFDVLKSGDARVCMIGFPSVGKSTLLSKTTKTESIVGAYEFTTLTAIPGVLEYEGARIQLLDLPGIVQDAAKGRGRGRQVVSVAKTADLILLMIDATKSAEQKRLLEIELEAVGIRLNTRPPDVVFKQKQAGGITLNCTVKLTKTDERTIRSILQTYKIHNCDVMIREDITTDEFIDVLLGTRKYIPSLTVINKIDGVSMETLDSMAREGDGRTIMISCEIDLGIDWLLEAIWKELGLVKVYTKRRGEQPDLNDPICLRQGATIETVCHGIHRSLASHFKYALVWGKSSKFNPQPQKVGLNHLVQDEDVVSIFTK
B3: Metallothionein (protein, UniProt J9VVZ2 1-86)
chain: MTCSGNPSNCDFCGNTQVDCAMSEVHGCTTQPSNCSVCEGKGCVALKCTGNTDTCPSCKDSFSSCRKAQFSDAEGIEPARRPAPAA
B4: Exocyst protein (protein, UniProt J9VN33 1-1194)
chain: MSSVPRTSSQDDVRSHITASLCAQRAPDGTPEETLIAFLKVYEEDSAGGTKSRYLILAVQRTGRVFIHKAKRNSNLSFSKGKTWYLEDVRVLEVMGPSDFALTMTTRRYHWTTERPKDQTAFLTSIVKVYKEYTHGRLPELINFVPPPIQSQPATQQQVPHTGLNEPPSAFPIPRVGNSDLTLPQPFGRSYRANSSSSVNSSQTYGSHYQPSHSESSRGRPSVDDDRSPPSATGTGAFARFPLSDTGRRPSGGDGRAAISPRAVAPGNGVGMGPPPAQRKMSDDRAEKIGLSALRNVSAASEYDSGTAGDASSRMKKSESDMSVIAETETERSVSAGAGGKATQSSRIPSAPVIREHSPSPPPPPPPPPQSTSNPQASEQKPKPAPPTITTTDLSVPSPGLNTSADFSSSPVSATRSSRRASFHPPPLDTTISRDVLLQSRTGLLPGAAGMTIDESEGDDGVLKNVEEMLEGFDWGMSAGGLGLNGEWRKKGADIIENRLLDELTALDSAIIHAFLESDDRTAQVLAHIDEALMELDDIDLQITGYRMQLNAVSDDISYIESQGKGLQVQTSNQQVLLNELRQLLQIVEVPADDLHTLIKEPPSSEQGVKALERAAASLYKALQAGMDTANAEVAATIARMQEYREQSSKFCKRMSDYLDITFQYQADSTLSDFRKNFKKTMALESHQKMGEKLMIYTGLVLYIKEMDDARYQKLCSDYMSRASQLHQSEMRELLTYMASLHLSSGDAGADADFSSAPGANYAKPSALQKSKTVIGLGLGNQPKQEKRTGNNISRAAELYRQAFTQIINQIVVEEDFINAFLRPVDTESTFADYMELDSYFRRQAARHASRARSAGMIQLLRSMMDLIFGFVEIELKNWVEATVEKGPVAIVGIIAVTERLAKEAEEENTSIFFTQLFDKQLLKQRLIMDMFINKQIKSIEASKTIIKRRKGITFFVKHFPVFVERVEQQMDGNGDLPIRVKVNEAYEKVMTSVYGSLEQLAKMERAETQANEDKGQLNYHVIMIENLHCFIEDVSQIKSMAMAGFLQRAKTRFEENMSMYIRLMLRRTFARFIDFFDGVDRLLQSTPANEISLHHSYSRSALKKILKDHGAKDMRKAVETMSRRVDKHFADDEEPNTSTANTALINMVWNELTQEFAKEILRAQGIVAKSYGDSGLGLEFSAADVEATCKKMK
B5: PH domain-containing protein (CNAG_03727) (protein, UniProt J9VGF7 1-1282)
chain: MPLFFQRSRRASEAPPVLHPPDSKAHKRFSIDATSNAHNNPPFSTMNGTKLKNLLGAGPGSGDQSGTQKKERMKKKLTTPSMFFRRNSSSSPESPKPSPGSATVPITPGNEPIMADYQDPVQRISTKPVNAGLFPSAAVSPENSVLSHTVSPETSTPLSQGSVTPNARARPLSQTWQPSYPLVLPDEGYADVLPNGQLPLTTGPDIVSAAGDENAQRRSTDAHVLDSQLITKPQEMVVVPPETHLPTPPLSSRVSPEIGLQNEVETNQRRPSLALITSDEVLTPKALRPVSHEQENIKAPLAAADNQMVSENVVHPPEIHNQDILAIAPSPITHHTASSIPSISATPAMPSTPISSSSSPVRMSRPGLPVRKTTVIHSPPMPQPIRNLPTLTNLASLAGDTSSTTPTATPGWGELAKEGGPKTPGGGIMRSPISMMNGARTPGLGSFTLNLPQGKAKKTPMTEQELRKARRAMPVMLRQPSTVPSNEDDEGGDAGDDDDEEEESEDGAVSDGDSDNDSEAETARNPSTVSSSPVGFSGRLARKTRAGSSSQVGEMAKSAVTEEGDVSGSRALNASTDARRQSDFSRFNGMSNVSGPTIIPKANGKSVWSLSTPCEKDQSTSWAQFNNEGTPVRDVVPPVIVDTGNAQPTAGAAAAIARATLERGQLSYPSTLTTTSRGSSGYFDSQPSSSGPSAMPSPLPRLDKGKGKDLTVAVDSGSGLAAPVAAPRVEGEEERSVLEEESEIEEDVRREELGASSEDTNEVSTEGGTPSVEANDIAASTLPPSSQQVPQRPSLYTQTSISMINLPPKPQDSEDSTANRMVVKPKLETVKSGEQMPFRISLPPQQEPTGPGGILSPAEWAKPPPTPATGLNSFNFLVAGKDKPKELKRRRSAGDLVVPPPKYEPPFPGTFIPKPRDEEGREKLPKYWCSVHIEGMLQRKMEFIGEKDLGTGPDGKKKVEKIQARDRSWKRYYFILHGTALLVYKFDPHRFPLKTDAPVPTIDDEDADEFLHVHPSPERRRRASSSSVIGPGNKRGSVSVDPGRRGSVDTTNSMTWRGSGDSTSPISIPIPGRRTSESNNSLGSGSYRRSSLSIVHNAENGDDVKNAALFNSQRRASTSGTNAAFPSSSYGSTNTPLSSHFQHNALVKQYSLNKTESGLAADYHKRKNVVRVRADGEQFLLQTDSARDMVDWVEAFQAATNVAKDLDERPMPKIITLPRRRRRRNPAQQAATAAASNPVNAVASGTINPREATMVQQALVAADEAERERERMLREDQEAAVT
B6: Metal ion binding (protein, UniProt J9VPR8 1-1441)
chain: MPTSPALSPKSNPSSSSLPPTDSMPTVYSPPSSHHFPPPRHSPLSQTFSSDRQSHSRRVSLATPDISGARPSSCMSSRVNDQVQKSKGLGLQDRLRKEVDGVVKRRSGGVLGRGYILKTDHFPTGRAMDLDLNIQGAPNFRAPDEESLNVFGVAQPTSTGLKSILTLLGCQPAFLRKPNRRGSAAANTPPLSLGERRLSRTESPIRSTNLERFNSVDEREPQGKAIWFSTREETLVYCNGRPYVLRDASTPYQTLALSDRASNLEDIERRLKLDILDEARKYGGMILTHDEITGGTIIPTWVSVDEESIQTPKEVWDDMKRQGWRVDYWRIPIAPDTPIEHNYLDAYVSVLKNADPQTTALVFNCGMGVVRTTFAMCAAMLVRRKQLLLMGLEDPFASVTSSGFSTPSSMMPQAAQFKTQAMLQQALNKSLLKVTRILNRNLPSKHPSTAIDLLTTQPTLLDQLCRAHMGSYQIVLSLLSSLDQGKPMKQLVDAVIDSCDAVINLRENVMEERIKYSVAAMEDKKRQSHLEKALRSLEQYFDLIVFAAYVDEEDAGTTGVSFSTFLKSRPEIWNQIKVLRRSGGNRLFAFAPVNDLSIISRCSEMDDRLDIHREVDLQGGKVLGDEWAEHVVTNRNGIMLRANTLLKSDLWLTESASSNEGVRGAIGFRQIKGSTIYATGQPTQDAISTILSTVHERWPNIESVIWVCLREEPLVMINGSPYCLRRDSIALRNMRDYSGVSSSRLEMLEQRLKSDVITEIEQFQGRVLLHTETADGQVMPVWEIADKQDVASLREVMDDAAATSKDVYLNFVRIPVTSESSPDFHDITELLNLCMRSNLSSSAIILNDQLGRGRSSTTAVIVFLIQRWLKEGRNQKTQNPRTPSRSRPPMLRKSTTASGSARTSWQIINSCLRVIRNGLDVKQVVDEAIDATATQFNVRKAIEDLYVEAQEATEPDRKRKLTELGLHHLKRYYHLLLFAAYLDDRAPEEEDPYSFESFVKHRPVFKTLEKELEAGGLESLAPIEKMEPADGMALPDEVTQVVANRSGAILSAQTILKSDFFSGLQKQSLPERVEGAANYRRLPLICEPHHEEDSHVSPHYVYGTGMPSCEGLRNALKKMDAGPDGSRRVVWTSLREEPVLYINSRPHVLRLVDKPLTNVETTGVTAAVVERMEVAMKQDVLKELRQSEGRLLLHDEVETKPGCYEIIPIWETCQESDILTPRELYESVISEGYKVDYMRVAITDEQAPLPVTFQVVVDRVAEGLKQGTDFVFNCQMGRGRTTTGMTVASLIATIASNDSPFDGGFLSDEEEDEEEAVAEATQYLNGEYKTILQLVTVMSHGKEAKRITDRAINLMEGVQNLRKAVYDFKLQVDAAEPGSAKHKTQTTRAINYLYRYGALVVLANFLLEMKEEGIPLEKTDFPAWLDKHREIRTALSRSTLE
B7: Vacuolar protein (CNAG_03162) (protein, UniProt J9VQ88 1-283)
chain: MSSPPRYTEEPNLRPAPSKAYDTTPADTAATQPLLAAHASTNAQRAAEEGWRDDEDNVSDNYKLGVSVSDCDTEIRMLFIRKVYSILLIQLLATAGVSILLSLPSAKDFTHTNPWIMWIPLIGSFTSLFFVYWKRHHHPANLILLGLFTLFEATMIGLAVSYYESRIVIQALFITLGVFIGLTLFTFQTKYDFSSLAPILFIGIWGLLTTYLIQIFLPFNATVDLGIACFSTLLFSGFVLYDTQQIMKRLSVDEAIAGALTLYLDFLNLFLSILRALNSSNDR
B8: Pollen-specific leucine-rich repeat extensin-like protein 1 (protein, UniProt J9VS67 1-177)
chain: MSEKKETQHQEEQQEQKKEPQQEQQEEQPEQEQQEEEQPEQEQQEQEQPEQEQEQPQQEQQQQQPQREQPQPQQELQQQRRSQDSHEPTFNMPPAPGPRTISKNPPRSETARDRALGPLRSHRVPLPNELSELTPEEQPGGSHKDDKHSLSINISLDLLVEVHLTARVKGDITIGLL

For this assay, the target named is T1, Cdc3-mCherry (C. neoformans). Kind of assay: affinity purification with mass spectrometry.
On to B1, for which the binding result is “binds”.
For the molecule B2, the binding result is given as “binds”.
In the case of B3, the binding result is recorded as “binds”.
For B4, the binding result is recorded as “binds”.
In the case of B5, the binding result is reported as “binds”.
For B6, the binding entry is “binds”.
For B7, the binding result is reported as “binds”.
For B8, the binding entry was “binds”.
